This is one part of the list. Values are worked out from sequencing counts and are noisy.
T1: Homer1 EVH1 domain
T1 chain: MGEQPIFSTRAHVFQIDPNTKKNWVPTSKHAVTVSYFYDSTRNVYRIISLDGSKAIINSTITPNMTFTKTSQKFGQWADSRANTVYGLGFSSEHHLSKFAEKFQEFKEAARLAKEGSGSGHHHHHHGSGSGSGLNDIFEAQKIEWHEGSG


Target: T1, Homer1 EVH1 domain
Assay: enrichment score (AUC of log2 frequency ratio across FACS sorting rounds) (log2 AUC); higher = stronger enrichment for Homer1 EVH1 binding
In the case of MAQRMTTQLLLLLVWVAVVGEAQTRIAWARTELLNV, the enrichment score is reported as 1.47.
Binder ITDYMASELGLLKVLETFVACLIFVFINSPYVYHNR has an enrichment score of 2.28.
With LQEATISVAGCLLQFFIFGSLATAECLLLAVMAYDR the enrichment score was 0.302.
With GALFNGLTLLILALISLFSVPVIYERHQAQIDHYLG the enrichment score was 1.32.
In the case of SPEGGDPSIFSSLPLGFFIVSSMVMLIGARYISGVP, the enrichment score is reported as 2.73.
MTLIEGVGDEVTVLFSVLACLLVLALAWVSTHTAEG was tested, and the enrichment score was -1.12.
With PATEMSPTGLLVVFAPVVLGLKAITLAALLLALATS the enrichment score was 3.39.
GSSTAARIFGVISIIFVVVSIINMALMSAELSWLDL was tested, and the enrichment score was -2.13.
SFDWSMDAVPLLKTVCDWRNLHTVAFYTGLLLLAYY was tested, and the enrichment score was 3.92.
DTIIREGTLMGTAIGTCFGYWLGVSSFIYFLAYLCN was tested, and the enrichment score was 2.51.
Binder MSAREVAVLLLWLSCYGSALWRYSTNSPNYRIFSTR has an enrichment score of 0.159.
FLENFSILETHLTWLCICSGFVTAVNLVLYLVVKPN showed an enrichment score of 1.56.
With FDKALLAISNVLFVAGLAFVIGLERTFRFFFQKHKM the enrichment score was 3.26.
For RRLFPFQLTGISKLISRRMPPFHAGLYTFAFLANLC, the enrichment score was 0.699.
Work on DPEVRVLHSIGHSAAPRLFPLAWTVLLLPLLLLQTP yielded an enrichment score of -0.716.
FYVNVMFMLAILLTFFHPFLVYRECRTWKESPSAIA showed an enrichment score of -0.758.
With MFVYIVFLFGFSTAVVTLIEDGKNDSLPSESTSHRW the enrichment score was 1.59.
In the case of MALTFYLLVALVVLSYKSFSSLGCDLPQTHSLGSRL, the enrichment score is reported as 2.21.
MSALGAVIALLIWGQLFAVDSGNDVTDIADDGCPKP showed an enrichment score of 2.12.
Binder WSVGEALILLVVSIGQVFLLKSFFSDKRTTTTRVGS has an enrichment score of 2.15.
EFGRGNPFMLFLCLAILLEHRDHIMRNGLDYNELAK showed an enrichment score of 1.91.
For LLAILITTLVYVGIAVSVGSCVVRDATGNVNDTIVT, the enrichment score was 1.23.
Binder AAAQLITMLWSLSVSSFAVGGMTASFFGGWLGDTLG has an enrichment score of 0.395.
Work on IQKASVLFFLAWVCFLFYAGIALFTSGFLLTRLELT yielded an enrichment score of 3.55.
VLSAINVGKSIMFAMTPLLIATSSLMPFIGFLLGYV gave an enrichment score of -2.73.
RRDSEPNGNLEMHDGDATGEKIYKCDECGKTFTWIR was tested, and the enrichment score was -0.338.
MAKMNLSSYILILTFSLFSQGILLSASKSIRNLDDD gave an enrichment score of 1.67.
HGFHPEENAREYGGAPSLQAQTVLLLLPLLLMLFSR was tested, and the enrichment score was 2.11.
MSPLLGLRSELQDTCTSLGLMLSVVLLMGLARVVAR showed an enrichment score of 2.
Work on RDMNQTLGDNITVKMYSPSWPSFDYTMVVIFVIAVF yielded an enrichment score of 1.17.
With KALKASLTLGILLGMFFVTWLPFFVANIVQAVCDCI the enrichment score was 1.94.
For GSTLNENKTPWFEMEGNLAPEDFKKFKKPLLPQLRR, the enrichment score was 1.77.
Binder MSSDFPHYNFRMPNIGFQNLPLNIYIVVFVLLFLSS has an enrichment score of 2.96.
Binder PAMCLLIYLYSLVKWYFIITIVIFVLQERIFGGLEI has an enrichment score of 0.43.
PQNGLKIRPFMKAHLNRDKDKELLKLTQYLKEIAKL was tested, and the enrichment score was 1.23.
For YLGDRYNRKYLMCGGIAFWSLVTLGSSFIPGEHFWL, the enrichment score was -0.49.
HADVLACLLFLLAFLSYNRSLDQGCVGGSFPSTVSP showed an enrichment score of 3.99.
For MPGQNYRTISEFILSGFSAFPQQLLPVLFLLYLLMF, the enrichment score was 3.15.
LKDPSRAIPLGTIVAVAYTFFVYLLLFFLSSFTCDR showed an enrichment score of 5.64.
With TQNTDVYPGLAVFFQNALIFFSTLIYKFGRTEELWT the enrichment score was -2.14.
SNDSDTVRSLKPWSQGTFSDQQWETLQHIFRVYRSS was tested, and the enrichment score was -0.574.
In the case of TVPPPPAALAVFSAALLLEVLSLAVSIRMVFFLEDV, the enrichment score is reported as -1.08.
Work on RRHIQKMQKNATGFWNPQTEAHVGAMKLMVYFLILY yielded an enrichment score of -0.596.
Work on QQTLPNSHLTEEALKVSIVPGPGDQKTGIPSAPSSF yielded an enrichment score of 1.69.
